Some entries share one result that the patent states for a list of compounds.
assay: Micellar drug loading by reverse phase HPLC; format: physicochemical; details: PEG-PE micelles, PEG-PE 13.07 mg/mL, n = 3 with SD
Protocol: Drug incorporation efficiency was measured by reverse phase HPLC using an Xbridge C18 ([…]) column (Waters Corporation, Milford, Mass.) on a Hitachi Elite LaChrom HPLC with autosampler (Pleasanton, Calif.). The HPLC method was modified from previously published method. Skidan I et al., J Chromatogr B Analyt Technol Biomed Life Sci 879:1610-1616 (2011). The mobile phase consisted of either 70:30 acetonitrile:water (DM-PIT-1) or 60:40 acetonitrile:water (NCL-176, NCL-179, NCL-198, NCL-240) with a flow rate of 1 mL/min. Detection of drug was performed at a wavelength corresponding to a peak on the absorption spectrum (DM-PIT-1: 320 nm, NCL-176: 260 nm, NCL-179: 295 nm, NCL-198: 295 nm, NCL-240: 300 nm). Sample injections were kept constant at 50 μL and the sample runtime was 10 min. Concentration of drug was determined by measuring the area under curve of the peak. Standard curves of stock drug in acetonitrile from concentrations of 10 μg/mL to 15 ng/mL were used to determine incorporation of drug in micelles. 5 μL of dialyzed drug-loaded micelles were diluted in 495 μL acetonitrile to destroy micelles.

SMILES | Loading Eff.
Oc1ccc(Cl)cc1-n1cc(C(O)(c2ccccc2)c2cn(-c3cc(Cl)ccc3O)nn2)nn1 [YK-NCL-179, 2,2′-(4,4′-(hydroxy(phenyl)methylene)bis(1H-1,2,3-triazole-4,1-diyl))bis(4-chlorophenol)] | > 90%
Oc1ccc(Cl)cc1-n1cc(C(O)(c2cc(C(F)(F)F)cc(C(F)(F)F)c2)c2cn(-c3cc(Cl)ccc3O)nn2)nn1 [YK-NCL-198, 2,2′-(((3,5-Bis(trifluoromethyl)phenyl)(hydroxy)methylene)bis(1H-1,2,3-triazole-4,1-diyl))bis(4-chlorophenol)] | > 90%
O=C(c1cc(C(F)(F)F)cc(C(F)(F)F)c1)c1cn(-c2cc(Cl)ccc2O)nn1 [YK-NCL-240, (3,5-Bis(trifluoromethyl)phenyl)(1-(5-chloro-2-hydroxyphenyl)-1H-1,2,3-triazol-4-yl)methanone] | > 90%

Reference: US9701646B2, “Small molecule inhibitors of PI3-kinase signaling” (Tufts University, priority 2013, dated 2017)
